Measurements from US20130035243A1.
Results are given in words; binding and its absence hold for the method and conditions named. In cells and extracts the contact can be indirect. Some entries that bind do so weakly or less than the wild type. Sequences can lack the tags named with a protein.

Columns and labels:
[1] = biological target: HA-wtKLF6 (wild type, full length KLF6 with an additional HA tag) (human) (UniProt Q99612); assay: co-immunoprecipitation from cotransfected 293T cells, Western blot
[2] = biological target: HA-wtKLF6 (wild type, full length KLF6 with an additional HA tag) (human) (UniProt Q99612); assay: co-immunoprecipitation from cotransfected 293T cells (FLAG/HA beads), Western blot

- binding [1]: binds
- binding [2]: binds
B1: FLAG-KLF6SV1 (FLAG-tagged KLF6 splice variant-1) (protein, not shown: small tags and cut ends)
chain: MDVLPMCSIFQELQIVHETGYFSALPSLEEYWQQTCLELERYLQSEPCYVSASEIKFDSQEDLWTKIILAREKKEESELKISSSPPEDTLISPSFCYNLETNSLNSDVSSESSDSSEELSPTAKFTSDPIGEVLVSSGKLSSSVTSTPPSSPELSREPSQLWGCVPGELPSPGKEKSLTDAHGKGVSGVLQEVMS
